Where two headings read alike, the source gives them in different places. No constants are given. Whether binding was seen depends on the method and setting. Binding seen in cells or lysates may run through a third protein. Some entries that bind do so weakly or less than the wild type. Tags and fused reporters may be left off the sequences shown.
Assays:
Cex1-HA (S. cerevisiae) = molecular target: T1, Cex1-HA (S. cerevisiae) (UniProt Q12453); test: co-IP; lysates of cex1Δ+Cex1-HA precipitated with anti-HA, without antibodies as control; endogenous Kar2 and Chc1 detected with specific antibodies (Fig. S2B)
T1 sequence: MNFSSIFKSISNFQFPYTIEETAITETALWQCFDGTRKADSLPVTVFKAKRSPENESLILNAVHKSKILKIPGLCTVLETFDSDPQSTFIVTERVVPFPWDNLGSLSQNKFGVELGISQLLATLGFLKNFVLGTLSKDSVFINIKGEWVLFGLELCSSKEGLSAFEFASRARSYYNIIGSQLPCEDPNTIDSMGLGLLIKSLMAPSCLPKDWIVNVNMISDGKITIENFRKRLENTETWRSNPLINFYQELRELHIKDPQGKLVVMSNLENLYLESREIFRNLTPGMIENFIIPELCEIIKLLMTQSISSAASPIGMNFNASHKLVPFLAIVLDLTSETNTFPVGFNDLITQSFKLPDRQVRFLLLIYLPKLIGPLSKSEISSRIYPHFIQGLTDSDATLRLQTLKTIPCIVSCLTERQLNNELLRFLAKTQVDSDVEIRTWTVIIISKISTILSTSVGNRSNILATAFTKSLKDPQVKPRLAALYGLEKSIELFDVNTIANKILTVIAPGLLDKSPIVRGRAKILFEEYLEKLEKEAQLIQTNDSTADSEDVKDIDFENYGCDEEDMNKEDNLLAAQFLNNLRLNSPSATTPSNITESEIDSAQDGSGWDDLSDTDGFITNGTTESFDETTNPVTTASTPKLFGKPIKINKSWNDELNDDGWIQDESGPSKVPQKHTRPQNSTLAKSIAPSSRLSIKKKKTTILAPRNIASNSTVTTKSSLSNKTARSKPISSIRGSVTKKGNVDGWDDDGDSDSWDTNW

The chains behind the UniProt entries cited, without tags or fusion partners. Residues count along the entry.
UniProt P16474, residues 43-682: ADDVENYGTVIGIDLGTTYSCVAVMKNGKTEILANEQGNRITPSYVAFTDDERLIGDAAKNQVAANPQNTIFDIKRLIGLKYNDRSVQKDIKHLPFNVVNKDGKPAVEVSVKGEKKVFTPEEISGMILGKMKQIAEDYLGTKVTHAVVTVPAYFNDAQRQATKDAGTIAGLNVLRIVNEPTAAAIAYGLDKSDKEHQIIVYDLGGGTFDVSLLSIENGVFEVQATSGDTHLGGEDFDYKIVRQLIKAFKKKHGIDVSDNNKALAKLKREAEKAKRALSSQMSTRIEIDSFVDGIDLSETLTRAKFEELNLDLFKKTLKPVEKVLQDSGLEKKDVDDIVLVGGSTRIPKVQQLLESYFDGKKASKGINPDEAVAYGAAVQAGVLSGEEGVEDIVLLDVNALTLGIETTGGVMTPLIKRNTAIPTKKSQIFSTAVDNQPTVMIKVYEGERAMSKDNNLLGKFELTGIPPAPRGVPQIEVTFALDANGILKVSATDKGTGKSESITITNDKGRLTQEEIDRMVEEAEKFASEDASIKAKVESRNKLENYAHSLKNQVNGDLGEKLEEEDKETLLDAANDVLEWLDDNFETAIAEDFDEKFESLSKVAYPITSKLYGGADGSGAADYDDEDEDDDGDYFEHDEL
UniProt Q02630: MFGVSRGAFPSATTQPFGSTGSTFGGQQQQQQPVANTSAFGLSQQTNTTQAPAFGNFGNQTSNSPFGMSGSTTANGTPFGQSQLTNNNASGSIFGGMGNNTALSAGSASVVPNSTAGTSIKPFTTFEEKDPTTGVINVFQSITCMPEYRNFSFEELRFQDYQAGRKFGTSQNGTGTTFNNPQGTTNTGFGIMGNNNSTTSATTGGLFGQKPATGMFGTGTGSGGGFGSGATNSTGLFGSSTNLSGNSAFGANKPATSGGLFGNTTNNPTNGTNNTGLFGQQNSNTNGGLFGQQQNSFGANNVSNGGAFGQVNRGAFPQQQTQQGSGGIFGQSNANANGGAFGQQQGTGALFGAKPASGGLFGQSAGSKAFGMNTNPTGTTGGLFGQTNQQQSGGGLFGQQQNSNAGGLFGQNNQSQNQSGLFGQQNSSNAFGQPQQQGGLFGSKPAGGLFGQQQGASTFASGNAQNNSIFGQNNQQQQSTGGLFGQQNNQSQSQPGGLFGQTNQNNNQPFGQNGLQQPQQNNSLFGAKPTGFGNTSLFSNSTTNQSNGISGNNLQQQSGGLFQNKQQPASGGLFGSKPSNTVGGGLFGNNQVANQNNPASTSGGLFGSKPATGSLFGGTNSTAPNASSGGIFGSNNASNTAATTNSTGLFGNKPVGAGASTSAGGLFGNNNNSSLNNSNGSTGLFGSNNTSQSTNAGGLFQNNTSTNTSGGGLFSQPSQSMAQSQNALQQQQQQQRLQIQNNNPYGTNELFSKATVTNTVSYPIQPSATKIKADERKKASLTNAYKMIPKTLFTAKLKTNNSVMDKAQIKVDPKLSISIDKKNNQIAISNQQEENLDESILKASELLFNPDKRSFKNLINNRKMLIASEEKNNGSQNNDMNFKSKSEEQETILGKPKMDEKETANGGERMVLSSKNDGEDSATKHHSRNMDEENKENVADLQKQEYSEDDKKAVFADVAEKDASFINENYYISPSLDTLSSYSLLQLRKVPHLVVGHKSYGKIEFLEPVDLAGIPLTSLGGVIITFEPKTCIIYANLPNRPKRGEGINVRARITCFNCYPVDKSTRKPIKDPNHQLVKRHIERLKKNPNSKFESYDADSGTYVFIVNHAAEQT
UniProt P22137: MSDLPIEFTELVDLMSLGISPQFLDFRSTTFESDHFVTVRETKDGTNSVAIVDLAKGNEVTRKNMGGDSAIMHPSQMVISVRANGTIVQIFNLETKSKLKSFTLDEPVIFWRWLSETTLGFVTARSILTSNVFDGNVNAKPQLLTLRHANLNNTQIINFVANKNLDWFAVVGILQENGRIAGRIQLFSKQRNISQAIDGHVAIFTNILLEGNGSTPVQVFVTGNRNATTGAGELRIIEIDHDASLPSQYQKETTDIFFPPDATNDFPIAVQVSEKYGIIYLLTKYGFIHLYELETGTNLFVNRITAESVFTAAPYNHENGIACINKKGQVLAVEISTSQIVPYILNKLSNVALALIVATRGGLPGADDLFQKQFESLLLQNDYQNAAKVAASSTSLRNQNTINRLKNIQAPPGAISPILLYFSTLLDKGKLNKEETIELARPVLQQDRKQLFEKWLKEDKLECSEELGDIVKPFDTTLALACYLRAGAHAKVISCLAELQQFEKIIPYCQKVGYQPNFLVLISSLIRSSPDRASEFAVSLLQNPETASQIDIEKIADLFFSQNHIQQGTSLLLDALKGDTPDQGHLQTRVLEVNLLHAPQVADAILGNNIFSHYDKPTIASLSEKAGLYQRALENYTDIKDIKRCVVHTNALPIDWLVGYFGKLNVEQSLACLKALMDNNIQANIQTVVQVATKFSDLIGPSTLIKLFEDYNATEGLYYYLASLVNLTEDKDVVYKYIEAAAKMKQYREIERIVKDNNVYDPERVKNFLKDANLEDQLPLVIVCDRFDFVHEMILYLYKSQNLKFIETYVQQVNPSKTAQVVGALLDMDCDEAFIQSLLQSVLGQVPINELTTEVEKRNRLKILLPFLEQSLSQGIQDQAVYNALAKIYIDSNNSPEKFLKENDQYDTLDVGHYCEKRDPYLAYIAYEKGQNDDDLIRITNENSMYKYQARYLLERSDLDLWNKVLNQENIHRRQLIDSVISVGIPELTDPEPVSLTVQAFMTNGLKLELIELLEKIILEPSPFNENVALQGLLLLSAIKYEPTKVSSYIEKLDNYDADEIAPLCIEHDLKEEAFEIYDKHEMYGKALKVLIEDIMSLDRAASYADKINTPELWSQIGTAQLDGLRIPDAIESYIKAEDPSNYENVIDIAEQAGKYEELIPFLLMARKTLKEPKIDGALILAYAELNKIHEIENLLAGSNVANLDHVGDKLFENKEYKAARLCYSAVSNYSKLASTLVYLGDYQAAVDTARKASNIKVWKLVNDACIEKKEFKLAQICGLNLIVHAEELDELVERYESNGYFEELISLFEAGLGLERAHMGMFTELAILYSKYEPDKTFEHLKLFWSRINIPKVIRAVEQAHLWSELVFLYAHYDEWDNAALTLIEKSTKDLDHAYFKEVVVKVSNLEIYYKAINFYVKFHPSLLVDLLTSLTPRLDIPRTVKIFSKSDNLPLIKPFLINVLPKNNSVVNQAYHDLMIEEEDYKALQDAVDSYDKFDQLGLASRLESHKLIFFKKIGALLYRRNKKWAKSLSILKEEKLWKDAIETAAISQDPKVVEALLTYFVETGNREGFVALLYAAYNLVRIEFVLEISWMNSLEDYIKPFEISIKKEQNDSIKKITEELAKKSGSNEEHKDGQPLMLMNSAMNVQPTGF

[1] = molecular target: T2, Sec27-Myc (S. cerevisiae) (UniProt P41811); test: co-IP; lysates of cex1Δ+pHAC-CEX1+pAD6-MYC-SEC27 on Sepharose beads coated with anti-Myc, non-specific IgG as control; blots with anti-HA, anti-Nup116, anti-MYC; cells grown in fermentation conditions
T2 sequence: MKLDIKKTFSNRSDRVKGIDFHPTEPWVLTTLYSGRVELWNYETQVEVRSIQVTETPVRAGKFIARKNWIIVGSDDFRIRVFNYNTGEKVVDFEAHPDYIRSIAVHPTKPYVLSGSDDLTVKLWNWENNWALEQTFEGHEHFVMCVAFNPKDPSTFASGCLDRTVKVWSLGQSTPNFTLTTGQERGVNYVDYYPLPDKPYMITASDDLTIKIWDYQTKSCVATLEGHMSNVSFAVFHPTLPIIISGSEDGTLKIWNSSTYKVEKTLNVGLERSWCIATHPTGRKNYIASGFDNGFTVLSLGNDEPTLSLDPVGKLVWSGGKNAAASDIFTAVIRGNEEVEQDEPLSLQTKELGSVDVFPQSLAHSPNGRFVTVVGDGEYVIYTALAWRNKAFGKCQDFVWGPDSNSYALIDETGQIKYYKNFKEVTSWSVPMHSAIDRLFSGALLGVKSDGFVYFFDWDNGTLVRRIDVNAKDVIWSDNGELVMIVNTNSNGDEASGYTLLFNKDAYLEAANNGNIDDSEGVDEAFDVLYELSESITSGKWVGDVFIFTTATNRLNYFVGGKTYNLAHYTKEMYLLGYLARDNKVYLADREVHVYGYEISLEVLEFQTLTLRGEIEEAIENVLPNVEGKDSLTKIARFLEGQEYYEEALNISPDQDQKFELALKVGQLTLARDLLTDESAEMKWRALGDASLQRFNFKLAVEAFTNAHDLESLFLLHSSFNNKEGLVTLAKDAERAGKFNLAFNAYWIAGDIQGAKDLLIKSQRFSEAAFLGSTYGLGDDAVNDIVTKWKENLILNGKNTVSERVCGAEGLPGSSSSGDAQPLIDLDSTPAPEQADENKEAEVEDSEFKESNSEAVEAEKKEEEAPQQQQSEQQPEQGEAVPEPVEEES

[2] = molecular target: T2, Sec27-Myc (S. cerevisiae); test: as above; remark: listed apart in the source

In the case of Kar2/BiP (from UniProt P16474 43-682), the binding (Cex1-HA (S. cerevisiae)) is reported as “no binding”.

Nup116 (from UniProt Q02630 1-1113) was tested, and the binding [1] was “binds weakly”.

For “clathrin heavy chain Chc1 (from UniProt P22137 1-1653)”, the binding (Cex1-HA (S. cerevisiae)) was “no binding”.

B1: Cex1-HA (protein, UniProt Q12453 1-761)
chain: T1 sequence
With B1 the binding [2] was “binds”.
